Experiment [1] deals with T1, full-length mouse RasGRF1 (mouse) (UniProt P27671).
T1 sequence (looked up): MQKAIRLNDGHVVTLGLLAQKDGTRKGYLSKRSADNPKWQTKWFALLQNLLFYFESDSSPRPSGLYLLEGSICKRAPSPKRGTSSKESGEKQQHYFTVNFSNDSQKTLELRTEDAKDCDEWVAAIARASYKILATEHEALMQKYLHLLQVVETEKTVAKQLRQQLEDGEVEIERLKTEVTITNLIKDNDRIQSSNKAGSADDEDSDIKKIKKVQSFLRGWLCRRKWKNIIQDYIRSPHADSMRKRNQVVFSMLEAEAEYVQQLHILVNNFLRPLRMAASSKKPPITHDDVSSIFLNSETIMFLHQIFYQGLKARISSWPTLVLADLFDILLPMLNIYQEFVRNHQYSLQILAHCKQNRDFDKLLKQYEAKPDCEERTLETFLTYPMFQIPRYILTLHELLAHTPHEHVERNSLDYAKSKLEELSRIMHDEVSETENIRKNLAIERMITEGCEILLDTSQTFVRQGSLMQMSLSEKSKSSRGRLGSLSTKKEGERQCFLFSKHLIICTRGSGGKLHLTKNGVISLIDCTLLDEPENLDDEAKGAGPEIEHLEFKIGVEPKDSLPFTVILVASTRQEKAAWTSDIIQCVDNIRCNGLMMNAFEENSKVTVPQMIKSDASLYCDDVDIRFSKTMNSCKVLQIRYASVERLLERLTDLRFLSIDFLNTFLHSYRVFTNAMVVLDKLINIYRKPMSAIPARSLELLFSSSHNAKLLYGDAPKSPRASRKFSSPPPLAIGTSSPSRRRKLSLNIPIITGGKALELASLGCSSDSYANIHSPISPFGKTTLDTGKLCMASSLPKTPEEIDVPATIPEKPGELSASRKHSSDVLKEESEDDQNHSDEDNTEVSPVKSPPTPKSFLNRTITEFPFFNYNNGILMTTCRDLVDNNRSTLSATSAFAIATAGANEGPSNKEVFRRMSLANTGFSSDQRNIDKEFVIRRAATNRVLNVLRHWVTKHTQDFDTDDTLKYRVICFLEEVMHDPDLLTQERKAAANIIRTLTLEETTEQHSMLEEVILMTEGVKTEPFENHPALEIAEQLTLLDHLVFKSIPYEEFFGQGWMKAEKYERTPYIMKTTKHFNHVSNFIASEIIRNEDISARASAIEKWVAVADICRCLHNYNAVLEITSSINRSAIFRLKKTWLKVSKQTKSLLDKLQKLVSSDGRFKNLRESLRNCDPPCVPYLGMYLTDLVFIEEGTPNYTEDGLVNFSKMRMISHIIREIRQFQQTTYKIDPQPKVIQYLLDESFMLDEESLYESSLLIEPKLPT
Description: NusA pull-down (FIG. 1A).

Chains of the proteins cited; added tags and fusions are not shown. Lines headed by an entry give the natural chain unless they say otherwise; changes in a name come on top.
UniProt Q00960: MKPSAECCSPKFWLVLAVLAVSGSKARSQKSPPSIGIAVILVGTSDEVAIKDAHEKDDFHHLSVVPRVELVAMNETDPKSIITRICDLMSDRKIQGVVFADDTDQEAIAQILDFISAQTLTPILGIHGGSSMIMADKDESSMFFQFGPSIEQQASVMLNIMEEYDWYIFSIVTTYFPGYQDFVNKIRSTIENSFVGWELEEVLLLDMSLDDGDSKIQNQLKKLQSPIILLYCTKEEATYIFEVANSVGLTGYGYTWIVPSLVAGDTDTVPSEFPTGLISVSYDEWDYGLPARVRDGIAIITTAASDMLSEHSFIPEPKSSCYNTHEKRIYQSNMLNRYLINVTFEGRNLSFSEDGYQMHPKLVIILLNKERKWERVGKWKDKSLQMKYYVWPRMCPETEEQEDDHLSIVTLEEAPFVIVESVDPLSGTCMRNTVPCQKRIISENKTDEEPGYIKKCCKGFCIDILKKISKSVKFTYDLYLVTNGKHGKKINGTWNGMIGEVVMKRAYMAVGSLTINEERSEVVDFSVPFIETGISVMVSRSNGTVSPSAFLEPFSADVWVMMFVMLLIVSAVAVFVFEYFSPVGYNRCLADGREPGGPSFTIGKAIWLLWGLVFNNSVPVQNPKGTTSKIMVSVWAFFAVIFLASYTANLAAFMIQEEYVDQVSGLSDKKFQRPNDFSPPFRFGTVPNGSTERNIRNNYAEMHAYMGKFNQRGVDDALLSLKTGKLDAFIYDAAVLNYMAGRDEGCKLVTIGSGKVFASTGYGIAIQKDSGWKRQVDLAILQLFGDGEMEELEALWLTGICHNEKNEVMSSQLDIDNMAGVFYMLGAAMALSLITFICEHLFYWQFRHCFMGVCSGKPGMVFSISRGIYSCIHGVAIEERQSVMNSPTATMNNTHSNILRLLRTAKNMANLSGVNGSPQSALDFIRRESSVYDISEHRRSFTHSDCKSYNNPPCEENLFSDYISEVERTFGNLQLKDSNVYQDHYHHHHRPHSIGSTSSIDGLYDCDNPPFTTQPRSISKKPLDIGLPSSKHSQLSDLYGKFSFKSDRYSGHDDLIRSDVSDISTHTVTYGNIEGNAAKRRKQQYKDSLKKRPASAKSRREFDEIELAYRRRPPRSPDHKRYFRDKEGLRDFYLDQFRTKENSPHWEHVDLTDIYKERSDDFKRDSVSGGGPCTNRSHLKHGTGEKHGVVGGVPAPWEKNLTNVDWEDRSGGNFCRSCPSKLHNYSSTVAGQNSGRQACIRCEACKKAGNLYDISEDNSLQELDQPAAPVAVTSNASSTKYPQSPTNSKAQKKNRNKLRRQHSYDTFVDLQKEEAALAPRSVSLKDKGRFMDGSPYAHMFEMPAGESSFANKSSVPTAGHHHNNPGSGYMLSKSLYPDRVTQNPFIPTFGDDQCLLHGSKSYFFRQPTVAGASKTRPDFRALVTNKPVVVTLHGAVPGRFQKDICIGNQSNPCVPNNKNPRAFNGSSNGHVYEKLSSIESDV

For experiment [2], the target named is T1, full-length mouse RasGRF1 (mouse). Kind of experiment: pull-down on Co2+ beads of 35S-labelled in vitro translated RasGRF1.
Experiment [3] shares this target. Description: co-immunoprecipitation of in vitro translated proteins with AU1 antibody.

These are yes or no findings as the source states them, for the method shown. Binding seen in cells or lysates may run through a third protein. Some entries that bind do so weakly or less than the wild type.

Consider “6His-NusA-NR2B (886-1310) fusion protein (from UniProt Q00960 886-1310)”, for which the binding entry in experiment [1] and in experiment [2] was “binds” in each case.
Take “AU1-tagged NR2B fragment, amino acids 886-1219 (from UniProt Q00960 886-1219)”: in experiment [3], the binding entry is listed as “binds”.
For “AU1-tagged NR2B fragment, amino acids 886-1310 (from UniProt Q00960 886-1310)”, the binding result in experiment [3] is recorded as “binds”.

The record behind these values is US20060035283A1.
